# Experimental data: the supplement of paper PMC8728848
# The other results are listed elsewhere or left out.
# B1: Epf (Streptococcus pyogenes) (protein)
# chain: GDHGPEFNGVMVVKAAEAEELPDDLMNFKGTWEVSADGSSGRFFSKGATDSYVFHLIPAKDVKKPGWREHNEVKDSYIKIDKQSIAARYKTSTTAPYSVAFKVNTKSLIKDHDYKITFEQGQIASGITVDYRIGSAFNKTTDDSFKISDESKYASNVKIEGEEQGFKQREQGDKTISFRTLKEGPMSLVLLSKVEKKPQGDLDVEFKNLKIIDVTNPSQLDKGVAYVGNKNVQLTLKSDDGRTNFEGDEISLFNSRGELLQTVTVTKDQQNPISITLSEDQAKSLKNKEKLKVSIKQKQSKKTSKDFFFEVGIDPKVEAKQKEKLLELDKVKKQIEDSINGDAWLPEKPVDLQGDHGLSAWSHPQFEK
# Tests used:
# Experiment in all cases: glycan array binding signal (z-score within array); higher = stronger binding
# Conditions in all cases: glycan notation: IUPAC condensed, linker removed
# [1] = biological target: Gal(a1-3)Gal(b1-4)GlcNAc(b1-2)Man(a1-3)[Gal(a1-3)Gal(b1-4)GlcNAc(b1-2)Man(a1-6)]Man(b1-4)GlcNAc(b1-4)GlcNAc
# Method in brief: (§1)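 Glycan array data came from 3228 arrays in the Consortium for Functional Glycomics database, and only arrays with an available protein sequence were kept. Glycan names were put into IUPAC-condensed notation, and columns mapping to the same glycan were averaged. The binding signal is a within-array Z-score, averaged across arrays of one protein sequence run at different concentrations or buffers and across linkers. A negative Z-score can be read as non-binding.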
# [2] = biological target: Gal(a1-3)Gal(b1-4)GlcNAc(b1-3)GalNAc
# Method in brief: as §1
# [3] = biological target: Gal(a1-3)Gal(b1-4)GlcNAc(b1-6)GalNAc
# Method in brief: as §1
# [4] = biological target: Gal(a1-3)Gal(b1-4)[Fuc(a1-3)]GlcNAc
# Method in brief: as §1
# [5] = biological target: Gal(a1-3)Gal(b1-4)[Fuc(a1-3)]GlcNAc(b1-2)Man(a1-3)[Gal(a1-3)Gal(b1-4)[Fuc(a1-3)]GlcNAc(b1-2)Man(a1-6)]Man(b1-4)GlcNAc(b1-4)GlcNAc
# Method in brief: as §1
# Gal(a1-3)GalNAc = biological target: Gal(a1-3)GalNAc
# Method in brief: as §1
# [6] = biological target: Gal(a1-3)[Gal(a1-4)]Gal(b1-4)GlcNAc
# Method in brief: as §1
# [7] = biological target: Gal(a1-4)Gal(b1-3)GlcNAc(b1-2)Man(a1-3)[Gal(a1-4)Gal(b1-3)GlcNAc(b1-2)Man(a1-6)]Man(b1-4)GlcNAc(b1-4)GlcNAc
# Method in brief: as §1
# Gal(a1-4)Gal(b1-4)Glc = biological target: Gal(a1-4)Gal(b1-4)Glc
# Method in brief: as §1
# Gal(a1-4)Gal(b1-4)GlcNAc = biological target: Gal(a1-4)Gal(b1-4)GlcNAc
# Method in brief: as §1
# [8] = biological target: Gal(a1-4)Gal(b1-4)GlcNAc(b1-2)Man(a1-3)[Gal(a1-4)Gal(b1-4)GlcNAc(b1-2)Man(a1-6)]Man(b1-4)GlcNAc(b1-4)GlcNAc
# Method in brief: as §1
# [9] = biological target: Gal(a1-4)Gal(b1-4)GlcNAc(b1-3)Gal(b1-4)Glc
# Method in brief: as §1
# Gal(a1-4)GlcNAc = biological target: Gal(a1-4)GlcNAc
# Method in brief: as §1
# Gal(a1-6)Glc = biological target: Gal(a1-6)Glc
# Method in brief: as §1
# Gal(b1-2)Gal = biological target: Gal(b1-2)Gal
# Method in brief: as §1
# Gal(b1-3)Gal = biological target: Gal(b1-3)Gal
# Method in brief: as §1
# Gal(b1-3)Gal(b1-4)GlcNAc = biological target: Gal(b1-3)Gal(b1-4)GlcNAc
# Method in brief: as §1
# Gal(b1-3)GalNAc = biological target: Gal(b1-3)GalNAc
# Method in brief: as §1
# [10] = biological target: Gal(b1-3)GalNAc(a1-3)[Fuc(a1-2)]Gal(b1-4)Glc
# Method in brief: as §1
# [11] = biological target: Gal(b1-3)GalNAc(a1-3)[Fuc(a1-2)]Gal(b1-4)GlcNAc
# Method in brief: as §1
# Gal(b1-3)GalNAc(b1-3)Gal = biological target: Gal(b1-3)GalNAc(b1-3)Gal
# Method in brief: as §1
# [12] = biological target: Gal(b1-3)GalNAc(b1-3)Gal(a1-4)Gal(b1-4)Glc
# Method in brief: as §1
# [13] = biological target: Gal(b1-3)GalNAc(b1-4)Gal(b1-4)Glc
# Method in brief: as §1
# [14] = biological target: Gal(b1-3)GalNAc(b1-4)[Neu5Ac(a2-3)]Gal(b1-4)Glc
# Method in brief: as §1
# Gal(b1-3)GlcNAc = biological target: Gal(b1-3)GlcNAc
# Method in brief: as §1
# [15] = biological target: Gal(b1-3)GlcNAc(a1-3)Gal(b1-4)GlcNAc
# Method in brief: as §1
# [16] = biological target: Gal(b1-3)GlcNAc(a1-6)Gal(b1-4)GlcNAc
# Method in brief: as §1
# Gal(b1-3)GlcNAc(b1-2)Man = biological target: Gal(b1-3)GlcNAc(b1-2)Man
# Method in brief: as §1
# [17] = biological target: Gal(b1-3)GlcNAc(b1-2)Man(a1-3)[Gal(b1-3)GlcNAc(b1-2)Man(a1-6)]Man(b1-4)GlcNAc(b1-4)GlcNAc
# Method in brief: as §1
# [18] = biological target: Gal(b1-3)GlcNAc(b1-2)Man(a1-3)[Gal(b1-3)GlcNAc(b1-2)Man(a1-6)]Man(b1-4)GlcNAc(b1-4)[Fuc(a1-6)]GlcNAc
# Method in brief: as §1
# [19] = biological target: Gal(b1-3)GlcNAc(b1-2)Man(a1-3)[GlcNAc(b1-4)][Gal(b1-3)GlcNAc(b1-2)Man(a1-6)]Man(b1-4)GlcNAc(b1-4)GlcNAc
# Method in brief: as §1
# [20] = biological target: Gal(b1-3)GlcNAc(b1-2)[Gal(b1-3)GlcNAc(b1-6)]Man(a1-6)[Gal(b1-3)GlcNAc(b1-2)Man(a1-3)]Man(b1-4)GlcNAc(b1-4)GlcNAc
# Method in brief: as §1
# [21] = biological target: Gal(b1-3)GlcNAc(b1-3)Gal(b1-3)GlcNAc
# Method in brief: as §1
# [22] = biological target: Gal(b1-3)GlcNAc(b1-3)Gal(b1-4)Glc
# Method in brief: as §1
# [23] = biological target: Gal(b1-3)GlcNAc(b1-3)Gal(b1-4)GlcNAc
# Method in brief: as §1
# [24] = biological target: Gal(b1-3)GlcNAc(b1-3)Gal(b1-4)GlcNAc(b1-2)Man(a1-3)[Gal(b1-3)GlcNAc(b1-3)Gal(b1-4)GlcNAc(b1-2)Man(a1-6)]Man(b1-4)GlcNAc(b1-4)GlcNAc
# Method in brief: as §1
# [25] = biological target: Gal(b1-3)GlcNAc(b1-3)Gal(b1-4)GlcNAc(b1-2)[Gal(b1-3)GlcNAc(b1-3)Gal(b1-4)GlcNAc(b1-6)]Man(a1-6)[Gal(b1-3)GlcNAc(b1-3)Gal(b1-4)GlcNAc(b1-2)Man(a1-3)]Man(b1-4)GlcNAc(b1-4)[Fuc(a1-6)]GlcNAc
# Method in brief: as §1
binder,measurement,setting,value
B1,glycan array binding signal (z-score),[1],0.368
same,glycan array binding signal (z-score),[2],0.087
same,glycan array binding signal (z-score),[3],-1.75
same,glycan array binding signal (z-score),[4],0.471
same,glycan array binding signal (z-score),[5],0.862
same,glycan array binding signal (z-score),Gal(a1-3)GalNAc,0.627
same,glycan array binding signal (z-score),[6],1.59
same,glycan array binding signal (z-score),[7],-0.909
same,glycan array binding signal (z-score),Gal(a1-4)Gal(b1-4)Glc,-0.675
same,glycan array binding signal (z-score),Gal(a1-4)Gal(b1-4)GlcNAc,1.3
same,glycan array binding signal (z-score),[8],1.34
same,glycan array binding signal (z-score),[9],-0.066
same,glycan array binding signal (z-score),Gal(a1-4)GlcNAc,-1.69
same,glycan array binding signal (z-score),Gal(a1-6)Glc,0.543
same,glycan array binding signal (z-score),Gal(b1-2)Gal,-0.675
same,glycan array binding signal (z-score),Gal(b1-3)Gal,0.665
same,glycan array binding signal (z-score),Gal(b1-3)Gal(b1-4)GlcNAc,0.618
same,glycan array binding signal (z-score),Gal(b1-3)GalNAc,0.189
same,glycan array binding signal (z-score),[10],0.846
same,glycan array binding signal (z-score),[11],1.04
same,glycan array binding signal (z-score),Gal(b1-3)GalNAc(b1-3)Gal,0.131
same,glycan array binding signal (z-score),[12],0.325
same,glycan array binding signal (z-score),[13],-0.182
same,glycan array binding signal (z-score),[14],-0.938
same,glycan array binding signal (z-score),Gal(b1-3)GlcNAc,-0.762
same,glycan array binding signal (z-score),[15],-0.486
same,glycan array binding signal (z-score),[16],-0.243
same,glycan array binding signal (z-score),Gal(b1-3)GlcNAc(b1-2)Man,1.06
same,glycan array binding signal (z-score),[17],-0.502
same,glycan array binding signal (z-score),[18],-2.14
same,glycan array binding signal (z-score),[19],0.69
same,glycan array binding signal (z-score),[20],0.299
same,glycan array binding signal (z-score),[21],-0.13
same,glycan array binding signal (z-score),[22],0.13
same,glycan array binding signal (z-score),[23],-1.43
same,glycan array binding signal (z-score),[24],-0.269
same,glycan array binding signal (z-score),[25],1.64

# Already shown: an excerpt of the list.
binder,measurement,setting,value
B1,glycan array binding signal (z-score),[13],-0.182
same,glycan array binding signal (z-score),[14],-0.938
same,glycan array binding signal (z-score),Gal(b1-3)GlcNAc,-0.762
same,glycan array binding signal (z-score),[15],-0.486
same,glycan array binding signal (z-score),[16],-0.243
same,glycan array binding signal (z-score),Gal(b1-3)GlcNAc(b1-2)Man,1.06
same,glycan array binding signal (z-score),[17],-0.502
same,glycan array binding signal (z-score),[18],-2.14
